PubChem BioAssay AID1159578, Peter MacCallum Cancer Centre – 2015
Aim: 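siRNA pools altering how lymphatic endothelial cells close a scratch wound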 (primary screen). System: human lymphatic endothelial cells. Reagents: siRNA pool against human genes, 40 nM. Duration: 48 h after transfection. Detection: 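High-content imaging of dye-stained cells in a scratch assay measures filled wound area and nuclei per well; duplicate means given as ratio to mock and robust z-score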. Scale: migration robust z-score: higher = faster migration into the scratch; nuclei per well: higher = more cells in the well. Hit rule: 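Migration changed when robust z exceeds 2 or falls below -2 and mean nuclei number is at least 3300; otherwise not called changed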. Calls: active = migration changed; inactive = no migration change, or too few cells.
In all, the deposit lists about 18,000 reagents; below is a random part of them. In the full data, about 1,030 (5.7%) got an active call. 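Inactive calls also include pools with fewer than 3300 nuclei, whose migration was not assessed.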 Raw values vary from plate to plate and are shown uncorrected. Not all columns of the deposit are shown. Reagent sequences are not shown.

For APOBEC2 the deposit lists migration robust z-score -0.1; migration class with cell-count check migration z between -2 and 2; enough cells; nuclei per well, duplicate mean 6548; inactive.
Knock-down of CA5A gave: migration robust z-score -0.31; migration class with cell-count check migration z between -2 and 2; enough cells; nuclei per well, duplicate mean 5014; inactive.
With knock-down of MPC2, the screen gave migration robust z-score -0.13; migration class with cell-count check migration z between -2 and 2; enough cells; nuclei per well, duplicate mean 6200; inactive.
ACSL1 gave migration robust z-score -0.18; migration class with cell-count check migration z between -2 and 2; enough cells; nuclei per well, duplicate mean 5116; inactive.
Silencing of OR1N1 came out at: migration robust z-score -0.13; migration class with cell-count check migration z between -2 and 2; enough cells; nuclei per well, duplicate mean 4824; inactive.
Knock-down of TRIP10 resulted in: migration robust z-score -1.54; migration class with cell-count check migration z between -2 and 2; enough cells; nuclei per well, duplicate mean 6433; inactive.
Against BROX, the entry reads migration robust z-score 0.66; migration class with cell-count check migration z between -2 and 2; enough cells; nuclei per well, duplicate mean 6886; inactive.
With knock-down of CIMIP6, the record shows migration robust z-score -0.09; migration class with cell-count check migration z between -2 and 2; enough cells; nuclei per well, duplicate mean 7060; inactive.
DGKD scored migration robust z-score -0.16; migration class with cell-count check migration z between -2 and 2; enough cells; nuclei per well, duplicate mean 5396; inactive.
BCL6B gave migration robust z-score 1.06; migration class with cell-count check migration z between -2 and 2; enough cells; nuclei per well, duplicate mean 6446; inactive.
For PLRG1 the deposit lists migration robust z-score -0.9; migration class with cell-count check migration z between -2 and 2; enough cells; nuclei per well, duplicate mean 5341; inactive.
For BLTP3B the deposit lists migration robust z-score 0.01; migration class with cell-count check migration z between -2 and 2; enough cells; nuclei per well, duplicate mean 6062; inactive.

Reprinted from the entries so far for reference:
PLRG1: migration robust z-score = -0.9; migration class with cell-count check = migration z between -2 and 2; enough cells; nuclei per well, duplicate mean = 5341; activity call = inactive
BLTP3B: migration robust z-score = 0.01; migration class with cell-count check = migration z between -2 and 2; enough cells; nuclei per well, duplicate mean = 6062; activity call = inactive
